Measurements reported in patent publication US6521740 (IMMUNEX, dated 2003).
No constants are given. Whether binding was seen depends on the method and setting. Some binding calls cover weakened binding; strength is not graded here.

Sequences of proteins named here, by UniProt entry; tags and fusion partners are left off. A change or cut given only in a name is not applied to a line headed by its entry. Residues count along the entry.
UniProt P14778: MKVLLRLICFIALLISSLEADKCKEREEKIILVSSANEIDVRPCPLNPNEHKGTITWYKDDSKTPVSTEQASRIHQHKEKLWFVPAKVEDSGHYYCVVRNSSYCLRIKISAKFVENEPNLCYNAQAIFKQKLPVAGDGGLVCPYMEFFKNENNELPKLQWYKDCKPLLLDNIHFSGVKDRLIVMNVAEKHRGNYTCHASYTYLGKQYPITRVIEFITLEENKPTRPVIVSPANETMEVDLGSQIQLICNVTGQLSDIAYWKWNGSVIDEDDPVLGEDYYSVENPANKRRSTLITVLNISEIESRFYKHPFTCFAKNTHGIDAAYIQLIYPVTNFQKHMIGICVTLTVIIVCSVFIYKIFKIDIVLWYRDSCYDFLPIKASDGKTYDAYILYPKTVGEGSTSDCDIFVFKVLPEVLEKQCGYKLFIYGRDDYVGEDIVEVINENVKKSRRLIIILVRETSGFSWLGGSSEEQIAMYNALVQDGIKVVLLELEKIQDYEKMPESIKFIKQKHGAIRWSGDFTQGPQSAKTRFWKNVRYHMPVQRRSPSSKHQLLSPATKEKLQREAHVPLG
UniProt P18510, residues 26-177: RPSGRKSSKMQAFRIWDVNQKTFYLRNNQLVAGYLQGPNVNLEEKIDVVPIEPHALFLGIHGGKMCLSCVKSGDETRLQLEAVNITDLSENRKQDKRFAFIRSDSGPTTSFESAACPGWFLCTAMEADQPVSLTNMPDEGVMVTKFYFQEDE

Target: soluble human type I IL-1R (human) (UniProt P14778)
Experiment: Affinity chromatography on immobilised receptor; eluted at low pH

Which binding does the source give for “recombinant human IL-1 receptor antagonist (IL-1ra) (from UniProt P18510 26-177) (ligand)” here?
Its binding is “binds”.
